Measurements published in paper PMC9103030.
These are yes or no findings as the source states them, for the method shown. For some assays here: A result given as binding can be weak or reduced; the word gives no strength.

Key:
Experiment in all cases: two-hybrid; each of 13 full-length OsJAZs as BD (bait, left column) and AD (prey, top row) fusion; yeast Y2HGold; growth on SD/-Leu/-Trp/-His/-Ade; graded strong (++), weak (+), undetectable (-)
OsJAZ1 (rice) = target: T1, OsJAZ1 (rice) (UniProt Q7XPM8)
T1 sequence: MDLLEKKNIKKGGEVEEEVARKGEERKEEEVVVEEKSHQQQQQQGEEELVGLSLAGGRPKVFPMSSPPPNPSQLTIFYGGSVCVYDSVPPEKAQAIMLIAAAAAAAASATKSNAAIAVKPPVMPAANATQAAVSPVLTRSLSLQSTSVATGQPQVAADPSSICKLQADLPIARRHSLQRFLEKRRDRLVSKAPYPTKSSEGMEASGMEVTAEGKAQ

OsJAZ12 (rice) = target: T2, OsJAZ12 (rice) (UniProt Q7XEZ1)
T2 sequence: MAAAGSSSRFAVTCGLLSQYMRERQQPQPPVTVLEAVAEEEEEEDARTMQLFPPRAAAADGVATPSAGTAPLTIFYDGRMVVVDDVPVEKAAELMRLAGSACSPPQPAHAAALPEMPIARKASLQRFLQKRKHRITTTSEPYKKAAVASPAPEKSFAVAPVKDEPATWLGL

OsJAZ3 (rice) = target: T3, OsJAZ3 (rice) (UniProt Q6ZJU3)
T3 sequence: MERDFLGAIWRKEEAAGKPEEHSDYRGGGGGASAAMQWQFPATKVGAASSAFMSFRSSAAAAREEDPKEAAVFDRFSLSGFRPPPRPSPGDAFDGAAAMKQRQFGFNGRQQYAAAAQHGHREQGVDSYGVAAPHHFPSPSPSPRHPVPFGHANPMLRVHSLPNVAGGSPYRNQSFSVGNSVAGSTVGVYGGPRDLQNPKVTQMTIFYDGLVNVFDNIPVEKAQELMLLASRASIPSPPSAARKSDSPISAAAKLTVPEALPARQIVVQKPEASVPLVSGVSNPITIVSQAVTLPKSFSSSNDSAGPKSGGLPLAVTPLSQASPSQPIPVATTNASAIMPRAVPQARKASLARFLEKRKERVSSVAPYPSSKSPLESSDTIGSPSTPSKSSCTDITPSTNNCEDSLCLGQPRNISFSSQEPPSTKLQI

OsJAZ4 (rice) = target: T4, OsJAZ4 (rice) (UniProt Q6ES51)
T4 sequence: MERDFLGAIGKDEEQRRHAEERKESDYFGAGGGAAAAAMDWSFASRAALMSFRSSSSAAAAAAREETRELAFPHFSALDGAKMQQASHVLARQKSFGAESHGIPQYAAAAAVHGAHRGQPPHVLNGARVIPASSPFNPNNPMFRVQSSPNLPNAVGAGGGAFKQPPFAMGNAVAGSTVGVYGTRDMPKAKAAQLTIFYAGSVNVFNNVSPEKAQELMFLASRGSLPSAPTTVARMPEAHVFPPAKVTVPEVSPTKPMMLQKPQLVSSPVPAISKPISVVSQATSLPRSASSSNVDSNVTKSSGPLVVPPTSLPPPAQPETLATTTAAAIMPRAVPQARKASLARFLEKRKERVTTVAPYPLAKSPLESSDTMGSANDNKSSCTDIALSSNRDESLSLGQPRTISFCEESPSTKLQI

OsJAZ6 (rice) = target: T5, OsJAZ6 (rice) (UniProt Q84R94)
T5 sequence: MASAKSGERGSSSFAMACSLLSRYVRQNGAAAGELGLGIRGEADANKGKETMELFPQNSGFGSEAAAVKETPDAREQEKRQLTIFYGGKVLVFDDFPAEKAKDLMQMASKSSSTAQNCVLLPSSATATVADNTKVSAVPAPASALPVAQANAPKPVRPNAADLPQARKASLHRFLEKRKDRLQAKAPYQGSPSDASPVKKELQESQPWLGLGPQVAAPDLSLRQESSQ

OsJAZ7 (rice) = target: T6, OsJAZ7 (rice) (UniProt Q8H395)
T6 sequence: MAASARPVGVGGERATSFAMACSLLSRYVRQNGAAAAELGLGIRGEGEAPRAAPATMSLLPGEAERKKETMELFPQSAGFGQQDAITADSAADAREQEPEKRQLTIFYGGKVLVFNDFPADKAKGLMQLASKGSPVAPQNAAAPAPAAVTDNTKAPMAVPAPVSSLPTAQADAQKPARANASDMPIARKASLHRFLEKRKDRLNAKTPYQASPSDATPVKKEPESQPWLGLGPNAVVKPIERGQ

OsJAZ8 (rice) = target: T7, OsJAZ8 (rice) (UniProt Q69P94)
T7 sequence: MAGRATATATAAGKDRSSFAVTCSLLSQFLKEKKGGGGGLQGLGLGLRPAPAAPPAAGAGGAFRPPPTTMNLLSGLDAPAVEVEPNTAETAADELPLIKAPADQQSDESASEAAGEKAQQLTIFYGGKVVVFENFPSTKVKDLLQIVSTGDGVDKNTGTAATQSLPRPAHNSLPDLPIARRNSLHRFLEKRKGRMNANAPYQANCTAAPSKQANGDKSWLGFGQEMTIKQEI

OsJAZ9 (rice) = target: T8, OsJAZ9 (rice) (UniProt Q8GSI0)
T8 sequence: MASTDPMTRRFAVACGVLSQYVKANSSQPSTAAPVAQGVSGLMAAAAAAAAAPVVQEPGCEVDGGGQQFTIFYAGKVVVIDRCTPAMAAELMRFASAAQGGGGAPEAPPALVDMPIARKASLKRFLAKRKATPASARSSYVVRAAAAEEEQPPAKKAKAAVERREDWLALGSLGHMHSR

OsJAZ5 (rice) = target: T9, OsJAZ5 (rice) (UniProt Q7XV97)
T9 sequence: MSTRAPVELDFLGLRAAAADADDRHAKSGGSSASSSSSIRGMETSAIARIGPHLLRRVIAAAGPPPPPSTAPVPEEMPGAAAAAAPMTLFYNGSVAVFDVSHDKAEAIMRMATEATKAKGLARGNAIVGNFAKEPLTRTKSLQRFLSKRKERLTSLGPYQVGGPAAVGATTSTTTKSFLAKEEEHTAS

OsJAZ11 (rice) was tested, and the binding (OsJAZ1 (rice)) was “binds”, the binding (OsJAZ12 (rice)) was “no binding” and the binding (OsJAZ3 (rice)) was “no binding”. The binding (OsJAZ4 (rice)) was “binds”, the binding (OsJAZ6 (rice)) was “binds” and the binding (OsJAZ7 (rice)) was “binds”. For the same substance, the binding (OsJAZ8 (rice)) was “no binding” and the binding (OsJAZ9 (rice)) was “no binding”.

In the case of OsJAZ13 (rice), the binding (OsJAZ1 (rice)) was “no binding”, the binding (OsJAZ12 (rice)) was “no binding” and the binding (OsJAZ5 (rice)) was “no binding”. For the same substance, the binding (OsJAZ6 (rice)) was “no binding” and the binding (OsJAZ9 (rice)) was “no binding”.

With OsJAZ4-2 (rice) the binding (OsJAZ1 (rice)) was “no binding”, the binding (OsJAZ12 (rice)) was “binds” and the binding (OsJAZ7 (rice)) was “binds weakly”. For the same substance, the binding (OsJAZ8 (rice)) was “no binding”.

OsJAZ10 (rice) was tested, and the binding (OsJAZ1 (rice)) was “binds”, the binding (OsJAZ3 (rice)) was “binds” and the binding (OsJAZ4 (rice)) was “binds”. The binding (OsJAZ6 (rice)) was “binds”, the binding (OsJAZ7 (rice)) was “binds” and the binding (OsJAZ8 (rice)) was “no binding”.
